In the supplement of paper PMC10849652:
This is one part of the list.

The chains behind the UniProt entries cited, without tags or fusion partners. Where a name states a change or a piece, a line headed by the entry shows the natural chain unless it says otherwise.
UniProt P48147: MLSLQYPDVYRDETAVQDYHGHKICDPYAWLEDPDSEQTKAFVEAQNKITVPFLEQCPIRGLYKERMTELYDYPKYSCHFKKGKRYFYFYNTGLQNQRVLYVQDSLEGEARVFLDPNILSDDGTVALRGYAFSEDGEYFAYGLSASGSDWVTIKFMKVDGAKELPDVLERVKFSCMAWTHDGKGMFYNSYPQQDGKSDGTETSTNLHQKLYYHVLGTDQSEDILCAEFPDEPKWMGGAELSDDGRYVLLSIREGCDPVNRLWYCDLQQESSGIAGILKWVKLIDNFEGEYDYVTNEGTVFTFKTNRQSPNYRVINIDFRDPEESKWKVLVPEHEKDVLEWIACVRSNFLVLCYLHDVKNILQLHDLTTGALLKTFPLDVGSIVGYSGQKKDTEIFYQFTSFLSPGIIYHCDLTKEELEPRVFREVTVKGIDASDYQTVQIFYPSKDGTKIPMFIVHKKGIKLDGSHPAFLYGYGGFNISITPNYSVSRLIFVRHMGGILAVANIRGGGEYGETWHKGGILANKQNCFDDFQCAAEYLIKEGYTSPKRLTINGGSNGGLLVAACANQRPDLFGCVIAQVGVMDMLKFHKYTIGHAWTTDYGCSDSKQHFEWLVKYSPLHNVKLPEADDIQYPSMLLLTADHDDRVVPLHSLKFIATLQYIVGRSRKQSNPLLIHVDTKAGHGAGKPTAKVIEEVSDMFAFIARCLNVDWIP
UniProt P30154, whole entry, looked up: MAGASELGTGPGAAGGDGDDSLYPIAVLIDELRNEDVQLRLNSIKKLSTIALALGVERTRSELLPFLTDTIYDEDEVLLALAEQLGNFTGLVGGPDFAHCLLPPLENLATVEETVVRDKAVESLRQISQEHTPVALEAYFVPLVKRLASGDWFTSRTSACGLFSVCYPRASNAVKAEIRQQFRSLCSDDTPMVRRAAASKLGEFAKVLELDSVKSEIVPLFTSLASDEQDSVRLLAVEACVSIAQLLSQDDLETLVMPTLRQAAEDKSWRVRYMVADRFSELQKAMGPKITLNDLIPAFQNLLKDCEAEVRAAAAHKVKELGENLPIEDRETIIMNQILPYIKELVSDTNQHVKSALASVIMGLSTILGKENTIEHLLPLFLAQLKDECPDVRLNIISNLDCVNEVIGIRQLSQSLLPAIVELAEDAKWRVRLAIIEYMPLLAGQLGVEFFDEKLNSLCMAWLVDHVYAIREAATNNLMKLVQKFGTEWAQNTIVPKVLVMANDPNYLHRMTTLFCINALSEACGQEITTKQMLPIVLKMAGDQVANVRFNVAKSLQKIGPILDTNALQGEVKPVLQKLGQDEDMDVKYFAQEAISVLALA
UniProt Q9UGJ0: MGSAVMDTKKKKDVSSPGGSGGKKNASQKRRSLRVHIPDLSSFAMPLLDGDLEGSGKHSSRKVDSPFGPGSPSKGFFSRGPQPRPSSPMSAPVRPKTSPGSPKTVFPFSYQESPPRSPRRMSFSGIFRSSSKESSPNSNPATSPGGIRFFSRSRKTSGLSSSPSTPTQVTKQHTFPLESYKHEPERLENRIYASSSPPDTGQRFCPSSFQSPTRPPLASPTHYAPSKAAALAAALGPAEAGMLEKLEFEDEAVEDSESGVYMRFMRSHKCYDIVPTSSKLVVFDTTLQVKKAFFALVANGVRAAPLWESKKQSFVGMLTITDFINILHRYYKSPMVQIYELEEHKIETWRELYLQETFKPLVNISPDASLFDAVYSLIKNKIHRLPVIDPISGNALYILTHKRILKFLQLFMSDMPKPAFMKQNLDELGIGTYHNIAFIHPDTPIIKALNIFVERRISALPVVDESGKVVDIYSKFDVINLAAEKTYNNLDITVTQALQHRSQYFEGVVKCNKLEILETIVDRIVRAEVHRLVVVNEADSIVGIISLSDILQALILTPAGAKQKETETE
UniProt O00743: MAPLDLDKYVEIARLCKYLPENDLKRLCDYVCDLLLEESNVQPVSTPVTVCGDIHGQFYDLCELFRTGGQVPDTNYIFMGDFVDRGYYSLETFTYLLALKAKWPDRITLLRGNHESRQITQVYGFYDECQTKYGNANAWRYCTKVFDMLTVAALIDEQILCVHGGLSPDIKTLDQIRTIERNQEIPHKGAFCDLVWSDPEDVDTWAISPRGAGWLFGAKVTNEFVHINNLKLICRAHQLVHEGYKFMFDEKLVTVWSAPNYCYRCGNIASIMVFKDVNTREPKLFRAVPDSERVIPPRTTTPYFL
UniProt Q66LE6: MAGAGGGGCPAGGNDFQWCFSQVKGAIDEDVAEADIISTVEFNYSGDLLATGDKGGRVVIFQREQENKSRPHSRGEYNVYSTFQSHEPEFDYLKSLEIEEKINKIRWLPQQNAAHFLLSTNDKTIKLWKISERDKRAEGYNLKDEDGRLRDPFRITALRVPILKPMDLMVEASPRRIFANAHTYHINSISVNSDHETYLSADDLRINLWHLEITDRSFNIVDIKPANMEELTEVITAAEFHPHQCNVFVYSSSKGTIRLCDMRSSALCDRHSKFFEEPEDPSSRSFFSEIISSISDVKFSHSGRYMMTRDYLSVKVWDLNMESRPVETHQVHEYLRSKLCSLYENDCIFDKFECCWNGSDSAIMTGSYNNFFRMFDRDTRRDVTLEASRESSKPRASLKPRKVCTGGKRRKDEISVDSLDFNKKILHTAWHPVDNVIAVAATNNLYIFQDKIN
UniProt Q12972: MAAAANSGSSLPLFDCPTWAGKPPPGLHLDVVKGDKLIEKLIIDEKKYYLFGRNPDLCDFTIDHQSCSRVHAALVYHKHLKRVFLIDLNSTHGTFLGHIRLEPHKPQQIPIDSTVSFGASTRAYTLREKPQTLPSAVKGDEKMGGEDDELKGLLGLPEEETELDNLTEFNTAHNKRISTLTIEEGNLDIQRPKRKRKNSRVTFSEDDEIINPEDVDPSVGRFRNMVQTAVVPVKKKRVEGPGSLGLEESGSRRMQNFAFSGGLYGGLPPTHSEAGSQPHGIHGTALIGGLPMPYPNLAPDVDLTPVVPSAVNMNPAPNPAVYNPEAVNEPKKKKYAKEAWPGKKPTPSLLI
UniProt P41743, whole entry, looked up: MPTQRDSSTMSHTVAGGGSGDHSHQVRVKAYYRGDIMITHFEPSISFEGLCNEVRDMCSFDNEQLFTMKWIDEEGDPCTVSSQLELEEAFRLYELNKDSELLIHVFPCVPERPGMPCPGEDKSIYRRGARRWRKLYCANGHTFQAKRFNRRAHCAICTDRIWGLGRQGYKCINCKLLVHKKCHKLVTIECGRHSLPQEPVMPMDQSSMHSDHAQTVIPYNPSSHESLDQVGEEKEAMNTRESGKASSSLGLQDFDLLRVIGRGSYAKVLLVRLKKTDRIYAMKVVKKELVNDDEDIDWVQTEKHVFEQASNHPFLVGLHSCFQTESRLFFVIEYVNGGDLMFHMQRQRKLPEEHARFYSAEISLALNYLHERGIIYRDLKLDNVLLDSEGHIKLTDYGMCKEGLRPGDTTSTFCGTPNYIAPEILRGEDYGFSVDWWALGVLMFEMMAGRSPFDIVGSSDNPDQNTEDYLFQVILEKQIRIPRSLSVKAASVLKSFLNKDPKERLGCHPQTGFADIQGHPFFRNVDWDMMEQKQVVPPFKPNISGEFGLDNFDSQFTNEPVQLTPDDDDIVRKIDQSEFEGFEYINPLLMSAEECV
UniProt Q14738, whole entry, looked up: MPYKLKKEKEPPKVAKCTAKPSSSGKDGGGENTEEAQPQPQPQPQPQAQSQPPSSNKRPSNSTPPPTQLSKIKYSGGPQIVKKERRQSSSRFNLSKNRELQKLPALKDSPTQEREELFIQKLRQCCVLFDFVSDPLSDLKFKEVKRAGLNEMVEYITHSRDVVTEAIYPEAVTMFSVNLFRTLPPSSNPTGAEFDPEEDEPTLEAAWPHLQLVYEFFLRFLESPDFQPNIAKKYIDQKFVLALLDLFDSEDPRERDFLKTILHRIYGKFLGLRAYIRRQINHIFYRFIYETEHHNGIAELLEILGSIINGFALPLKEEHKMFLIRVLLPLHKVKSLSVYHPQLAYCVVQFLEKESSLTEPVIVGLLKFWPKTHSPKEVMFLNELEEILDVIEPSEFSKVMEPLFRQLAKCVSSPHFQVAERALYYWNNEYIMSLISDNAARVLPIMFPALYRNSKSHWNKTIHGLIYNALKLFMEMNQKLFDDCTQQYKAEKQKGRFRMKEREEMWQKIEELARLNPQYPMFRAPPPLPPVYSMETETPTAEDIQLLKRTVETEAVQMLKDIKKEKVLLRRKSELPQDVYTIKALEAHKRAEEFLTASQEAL
UniProt P30048: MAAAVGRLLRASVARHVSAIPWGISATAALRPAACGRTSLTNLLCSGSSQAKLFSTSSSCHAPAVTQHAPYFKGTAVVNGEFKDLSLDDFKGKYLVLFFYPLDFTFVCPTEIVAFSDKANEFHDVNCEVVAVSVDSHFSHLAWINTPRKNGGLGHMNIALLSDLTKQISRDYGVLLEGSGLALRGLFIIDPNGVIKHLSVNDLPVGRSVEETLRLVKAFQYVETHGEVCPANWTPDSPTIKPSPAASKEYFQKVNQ
UniProt P11908: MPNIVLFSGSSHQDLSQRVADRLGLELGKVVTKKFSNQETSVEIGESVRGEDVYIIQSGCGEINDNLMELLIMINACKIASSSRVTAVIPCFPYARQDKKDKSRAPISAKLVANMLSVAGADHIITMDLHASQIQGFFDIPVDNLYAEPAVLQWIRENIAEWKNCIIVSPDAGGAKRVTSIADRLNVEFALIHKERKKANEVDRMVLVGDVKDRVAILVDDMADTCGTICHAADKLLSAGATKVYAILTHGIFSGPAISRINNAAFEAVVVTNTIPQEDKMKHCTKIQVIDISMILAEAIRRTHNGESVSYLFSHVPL
UniProt Q96M27: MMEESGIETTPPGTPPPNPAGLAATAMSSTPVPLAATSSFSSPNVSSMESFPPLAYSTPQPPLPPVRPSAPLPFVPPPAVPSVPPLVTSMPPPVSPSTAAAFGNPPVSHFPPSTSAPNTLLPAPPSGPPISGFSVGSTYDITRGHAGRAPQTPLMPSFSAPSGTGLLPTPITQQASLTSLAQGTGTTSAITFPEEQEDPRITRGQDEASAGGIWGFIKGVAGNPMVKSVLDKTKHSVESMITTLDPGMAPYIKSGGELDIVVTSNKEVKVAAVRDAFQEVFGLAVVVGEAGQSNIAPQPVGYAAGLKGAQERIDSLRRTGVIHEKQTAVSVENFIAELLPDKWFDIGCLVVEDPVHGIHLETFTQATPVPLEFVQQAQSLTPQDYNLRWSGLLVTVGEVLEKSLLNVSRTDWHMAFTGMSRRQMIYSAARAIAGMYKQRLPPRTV
UniProt Q8WY54: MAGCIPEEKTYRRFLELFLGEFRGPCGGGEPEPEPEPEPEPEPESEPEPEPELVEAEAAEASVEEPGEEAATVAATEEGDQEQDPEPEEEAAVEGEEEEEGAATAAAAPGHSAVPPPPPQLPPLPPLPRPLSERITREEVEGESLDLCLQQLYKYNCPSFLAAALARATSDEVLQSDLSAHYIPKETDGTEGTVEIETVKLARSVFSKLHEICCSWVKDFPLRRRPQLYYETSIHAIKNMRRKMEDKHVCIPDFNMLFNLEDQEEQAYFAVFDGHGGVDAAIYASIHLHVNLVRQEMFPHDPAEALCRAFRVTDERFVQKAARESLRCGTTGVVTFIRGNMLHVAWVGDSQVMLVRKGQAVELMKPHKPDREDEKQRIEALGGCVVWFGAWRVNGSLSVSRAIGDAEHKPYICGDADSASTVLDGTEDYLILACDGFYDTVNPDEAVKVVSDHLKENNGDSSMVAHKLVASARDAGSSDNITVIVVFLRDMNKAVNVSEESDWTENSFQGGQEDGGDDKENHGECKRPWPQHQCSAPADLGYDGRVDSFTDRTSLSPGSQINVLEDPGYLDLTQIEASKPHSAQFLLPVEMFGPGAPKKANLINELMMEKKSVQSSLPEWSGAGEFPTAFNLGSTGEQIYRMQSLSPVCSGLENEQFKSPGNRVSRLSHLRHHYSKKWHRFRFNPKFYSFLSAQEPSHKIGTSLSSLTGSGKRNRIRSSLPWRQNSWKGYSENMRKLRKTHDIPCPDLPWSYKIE
UniProt P41236: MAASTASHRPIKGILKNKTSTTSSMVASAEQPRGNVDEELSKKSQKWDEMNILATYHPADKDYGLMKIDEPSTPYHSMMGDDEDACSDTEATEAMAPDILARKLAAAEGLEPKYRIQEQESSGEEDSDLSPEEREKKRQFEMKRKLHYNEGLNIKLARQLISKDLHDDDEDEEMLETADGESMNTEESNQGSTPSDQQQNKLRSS

Key:
Test in all cases: log2 fold change, soluble protein after heating vs DMSO (PISA); higher = thermal stabilisation; K562 cells, 10 uM, 30 min; active = over 0.2 and 3.5 SD of the protein, either way, in both replicates (recomputed)
[1] = compound: CC1=C(C=C(C=C1)NC(=O)C2=CC(=CC=C2)C(C)(C)C#N)NC3=CC4=C(C=C3)N=CN(C4=O)C
How it was run: (§1)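 Values are thermal stability changes relative to control samples and are taken from duplicates. They are stated as log2 fold changes. Before quantification by TMTpro 16plex LC-MS/MS with equalised channel sums, K562 cells at 2×10^6 cells/mL were treated with 10 μM compound for 30 min, heated in aliquots for 3 min across 48°C-58°C, pooled, extracted in PBS with 0.5% NP-40 at 4°C, and centrifuged at 21,000xg for 90 min to give the soluble supernatant.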

[2] = compound: CC1=C(C=C(C=C1)NC(=O)C2=CC(=CC=C2)N(C)C)NC(=O)C3=CC=C(C=C3)O
How it was run: as §1

[3] = compound: CC1=CC=C(C=C1)SC2=C3C=C(SC3=CN=C2)C(=O)N
How it was run: as §1

[4] = compound: CC1=NC(=CC=C1)C2=C(N=C(N2)C(C)(C)C)C3=CC4=NC=CN=C4C=C3
How it was run: as §1

Nexturastat A = compound: CCCCN(Cc1ccc(C(=O)NO)cc1)C(=O)Nc1ccccc1 [Nexturastat A]
How it was run: as §1

vemurafenib = compound: CCCS(=O)(=O)Nc1ccc(F)c(C(=O)c2c[nH]c3ncc(-c4ccc(Cl)cc4)cc23)c1F [vemurafenib]
How it was run: as §1

[5] = compound: CCCS(=O)(=O)Nc1ccc(F)c(C(=O)c2c[nH]c3ncc(Cl)cc23)c1F
How it was run: as §1

[6] = compound: CCCc1cc(C)[nH]c(=O)c1CNC(=O)c1cc(-c2ccnc(N3CCN(C)CC3)c2)cc2c1cnn2C(C)C
How it was run: as §1

givinostat = compound: CCN(CC)Cc1ccc2cc(COC(=O)Nc3ccc(C(=O)NO)cc3)ccc2c1 [givinostat]
How it was run: as §1

barasertib = compound: CCN(CCCOc1ccc2c(Nc3cc(CC(=O)Nc4cccc(F)c4)[nH]n3)ncnc2c1)CCOP(=O)(O)O [barasertib]
How it was run: as §1

[7] = compound: CC[C@@H]1C(=O)N(C)c2cnc(Nc3ccc(C(=O)NC4CCN(C)CC4)cc3OC)nc2N1C1CCCC1
How it was run: as §1

volasertib = compound: CC[C@@H]1C(=O)N(C)c2cnc(Nc3ccc(C(=O)N[C@H]4CC[C@H](N5CCN(CC6CC6)CC5)CC4)cc3OC)nc2N1C(C)C [volasertib]
How it was run: as §1

[8] = compound: CC[C@H](C)N1C=C(C2=C(C=C(C=C21)C3=CN=C(C=C3)N4CCNCC4)C(=O)NCC5=C(C=C(NC5=O)C)C)C
How it was run: as §1

epoxomicin = compound: CC[C@H](C)[C@@H](C(=O)N[C@@H]([C@@H](C)O)C(=O)N[C@@H](CC(C)C)C(=O)[C@]1(CO1)C)NC(=O)[C@H]([C@@H](C)CC)N(C)C(=O)C [epoxomicin]
How it was run: as §1

[9] = compound: CCn1c(C(=O)N(C2CC2)C2CC2)cc2c3c(ncn3C)c(Nc3cc(C)n(C)n3)nc21
How it was run: as §1

[10] = compound: CCn1cc(-c2ccnc3[nH]c(-c4cccc(CN(C)C)c4)cc23)c(-c2ccc(NC(=O)N(C)C)cc2)n1
How it was run: as §1

[11] = compound: CN(C)CC(=O)Nc1ccc2[nH]c(=O)c3ccccc3c2c1
How it was run: as §1

rosiglitazone = compound: CN(CCOC1=CC=C(C=C1)C[C@H]2C(=O)NC(=O)S2)C3=CC=CC=N3 (racemic) [rosiglitazone]
How it was run: as §1

[12] = compound: CN1C2=C(C3=C1C(=O)N(N=C3)CC4=CC(=CC=C4)N)SC(=C2)S(=O)C
How it was run: as §1

[13] = compound: CN1CCC(CNc2ccc3ncc(-c4cccc(OC(F)(F)F)c4)n3n2)CC1
How it was run: as §1

Measured: log2 fold change

PPP3CB isoform 4 (UniProt P16298)
inactive: [1] -0.064 | [2] -0.016 | [3] 0.027 | [4] -0.036 | Nexturastat A -0.158 | vemurafenib -0.012 | [5] -0.019 | [6] -0.049 | givinostat -0.035 | barasertib 0.035 | [7] -0.005 | volasertib -0.109 | [8] 0.003 | epoxomicin 0.019 | [9] -0.021 | [10] 0.029 | [11] 0 | rosiglitazone 0.064 | [12] -0.017 | [13] -0.123

PREP (UniProt P48147)
inactive: [1] -0.001 | [2] -0.021 | [3] 0.008 | [4] -0.019 | Nexturastat A 0.053 | vemurafenib 0.037 | [5] 0.021 | [6] 0.057 | givinostat 0.062 | barasertib 0.027 | [7] 0.051 | volasertib -0.258 | [8] 0.095 | epoxomicin 0.078 | [9] -0.046 | [10] -0.013 | [11] 0.045 | rosiglitazone 0.052 | [12] 0.09 | [13] -0.006

PPP2R1B isoform 2 (UniProt P30154)
inactive: [1] 0.093 | [2] -0.004 | [3] -0.025 | [4] 0.096 | Nexturastat A -0.049 | vemurafenib 0.062 | [5] 0.042 | [6] 0.033 | givinostat 0.01 | barasertib 0.043 | [7] -0.016 | volasertib -0.038 | [8] 0.011 | epoxomicin 0.105 | [9] 0.02 | [10] -0.029 | [11] -0.038 | rosiglitazone -0.005 | [12] 0 | [13] -0.019

PRKAG2 (UniProt Q9UGJ0)
inactive: [1] 0.033 | [2] -0.02 | [3] 0.021 | [4] 0.051 | Nexturastat A -0.075 | vemurafenib -0.042 | [5] -0.021 | [6] 0.011 | givinostat 0.009 | barasertib 0.022 | [7] -0.072 | volasertib -0.154 | [8] 0.049 | epoxomicin 0.028 | [9] 0.013 | [10] -0.053 | [11] 0.019 | rosiglitazone 0.033 | [12] -0.035 | [13] -0.129

PPP6C isoform 3 (UniProt O00743)
inactive: [1] 0.018 | [2] 0.021 | [3] -0.036 | [4] 0.023 | Nexturastat A -0.043 | vemurafenib -0.029 | [5] -0.033 | [6] -0.058 | givinostat -0.032 | barasertib -0.005 | [7] -0.004 | volasertib -0.023 | [8] -0.025 | epoxomicin -0.035 | [9] 0.024 | [10] 0.007 | [11] -0.051 | rosiglitazone -0.02 | [12] 0.018 | [13] -0.013

PPP2R2D (UniProt Q66LE6)
inactive: [1] -0.002 | [2] 0.009 | [3] -0.274 | [4] 0.034 | Nexturastat A -0.079 | vemurafenib -0.093 | [5] 0.228 | [6] -0.009 | givinostat -0.014 | barasertib 0.019 | [7] -0.035 | volasertib 0.114 | [8] 0 | epoxomicin 0.06 | [9] -0.011 | [10] 0.021 | [11] 0.038 | rosiglitazone 0.021 | [12] 0.011 | [13] -0.052

PPP1R8 (UniProt Q12972)
inactive: [1] 0.011 | [2] -0.052 | [3] 0.013 | [4] 0.079 | Nexturastat A -0.06 | vemurafenib 0.061 | [5] 0.055 | [6] -0.072 | givinostat -0.009 | barasertib 0 | [7] -0.067 | volasertib -0.054 | [8] 0.024 | epoxomicin 0.132 | [9] -0.013 | [10] -0.038 | [11] 0.084 | rosiglitazone 0.001 | [12] 0.003 | [13] -0.02

PRKCI (UniProt P41743)
inactive: [1] -0.005 | [2] -0.013 | [3] -0.027 | [4] 0.038 | Nexturastat A 0.041 | vemurafenib 0.015 | [5] 0.026 | [6] -0.028 | givinostat -0.052 | barasertib 0.016 | [7] 0.051 | volasertib -0.141 | [8] 0.033 | epoxomicin -0.018 | [9] 0.002 | [10] -0.097 | [11] 0.076 | rosiglitazone 0.046 | [12] -0.079 | [13] -0.041

PPP2R5D (UniProt Q14738)
inactive: [1] 0.062 | [2] -0.067 | [3] 0.034 | [4] 0.04 | Nexturastat A 0.009 | vemurafenib 0.082 | [5] 0.174 | [6] 0.087 | givinostat 0.014 | barasertib 0.043 | [7] -0.1 | volasertib -0.196 | [8] 0.091 | epoxomicin 0.011 | [9] 0.003 | [10] -0.045 | [11] 0.039 | rosiglitazone 0.023 | [12] -0.009 | [13] -0.045

PRPF8 (UniProt Q6P2Q9)
inactive: [1] -0.016 | [2] -0.043 | [3] -0.101 | [4] -0.045 | Nexturastat A 0.023 | vemurafenib -0.035 | [5] -0.021 | [6] 0.03 | givinostat -0.013 | barasertib -0.023 | [7] 0.078 | volasertib -0.08 | [8] 0.022 | epoxomicin -0.09 | [9] -0.027 | [10] 0.045 | [11] -0.033 | rosiglitazone -0.027 | [12] 0.117 | [13] 0.133

PRDX3 (UniProt P30048)
inactive: [1] 0.008 | [2] 0.009 | [3] 0 | [4] 0.068 | Nexturastat A 0.022 | vemurafenib -0.008 | [5] -0.003 | [6] -0.014 | givinostat 0.005 | barasertib -0.031 | [7] 0.087 | volasertib 0.06 | [8] -0.036 | epoxomicin -0.027 | [9] 0.056 | [10] -0.014 | [11] -0.028 | rosiglitazone -0.025 | [12] 0.002 | [13] 0.134

PRPS2 isoform 2 (UniProt P11908)
inactive: [1] -0.032 | [2] -0.039 | [3] -0.029 | [4] 0.011 | Nexturastat A -0.057 | vemurafenib -0.023 | [5] -0.01 | [6] -0.031 | givinostat 0.004 | barasertib -0.025 | [7] 0.049 | volasertib 0.065 | [8] -0.005 | epoxomicin 0.004 | [9] 0.024 | [10] 0.035 | [11] -0.031 | rosiglitazone -0.004 | [12] -0.052 | [13] 0.009

PRRC1 (UniProt Q96M27)
inactive: [1] -0.03 | [2] 0.003 | [3] -0.009 | [4] 0.005 | Nexturastat A -0.05 | vemurafenib -0.02 | [5] -0.005 | [6] -0.049 | givinostat -0.008 | barasertib 0.003 | [7] 0.027 | volasertib 0.064 | [8] -0.047 | epoxomicin -0.047 | [9] 0.025 | [10] -0.017 | [11] -0.057 | rosiglitazone -0.024 | [12] -0.038 | [13] -0.013

PPM1E (UniProt Q8WY54)
inactive: [1] 0.039 | [2] -0.006 | [3] -0.006 | [4] -0.104 | Nexturastat A 0.075 | vemurafenib 0.014 | [5] -0.006 | [6] -0.047 | givinostat -0.014 | barasertib 0.017 | [7] -0.002 | volasertib -0.108 | [8] -0.05 | epoxomicin 0.163 | [9] 0.01 | [10] -0.08 | [11] -0.015 | rosiglitazone -0.02 | [12] -0.058 | [13] -0.04

PPP3CC isoform 3 (UniProt P48454)
inactive: [1] -0.015 | [2] 0.035 | [3] 0.035 | [4] 0.055 | Nexturastat A -0.053 | vemurafenib 0.048 | [5] 0.002 | [6] 0.014 | givinostat 0.022 | barasertib -0.024 | [7] 0.032 | volasertib -0.043 | [8] 0.003 | epoxomicin 0.039 | [9] 0.003 | [10] 0.033 | [11] -0.036 | rosiglitazone 0.021 | [12] -0.004 | [13] 0.053

Two neighbouring records from above:
PPM1E (UniProt Q8WY54)
inactive: [1] 0.039 | [2] -0.006 | [3] -0.006 | [4] -0.104 | Nexturastat A 0.075 | vemurafenib 0.014 | [5] -0.006 | [6] -0.047 | givinostat -0.014 | barasertib 0.017 | [7] -0.002 | volasertib -0.108 | [8] -0.05 | epoxomicin 0.163 | [9] 0.01 | [10] -0.08 | [11] -0.015 | rosiglitazone -0.02 | [12] -0.058 | [13] -0.04

PPP3CC isoform 3 (UniProt P48454)
inactive: [1] -0.015 | [2] 0.035 | [3] 0.035 | [4] 0.055 | Nexturastat A -0.053 | vemurafenib 0.048 | [5] 0.002 | [6] 0.014 | givinostat 0.022 | barasertib -0.024 | [7] 0.032 | volasertib -0.043 | [8] 0.003 | epoxomicin 0.039 | [9] 0.003 | [10] 0.033 | [11] -0.036 | rosiglitazone 0.021 | [12] -0.004 | [13] 0.053

The list goes on:

PPP1R2 (UniProt P41236)
inactive: [1] -0.028 | [2] 0.023 | [3] 0.024 | [4] -0.002 | Nexturastat A -0.045 | vemurafenib -0.036 | [5] -0.041 | [6] -0.058 | givinostat -0.031 | barasertib 0.013 | [7] 0.054 | volasertib 0.103 | [8] -0.021 | epoxomicin -0.033 | [9] 0.039 | [10] 0.039 | [11] -0.018 | rosiglitazone -0.004 | [12] -0.073 | [13] -0.051
